PubChem BioAssay AID743454 | Peter MacCallum Cancer Centre | 2014

Purpose: 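Genes whose loss kills vorinostat-resistant colon cancer cells under vorinostat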 (primary screen)
Cells: human HCT116-VR colon cancer cells, selected for vorinostat resistance
Knock-down reagent: siRNA pool against human genes, 40 nM siRNA pool
Duration: vorinostat for 24 h, read-out about 72 h after transfection
Treatment: vorinostat at 2.5 µM final
Read-out: 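Cell viability by CellTiter-Fluor and caspase 3/7 activity by luminescence, each scaled to mock wells per plate, duplicates averaged, then robust z-scored over all plates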
Scale: viability robust z-score: higher = more viable cells than screen typical; caspase robust z-score: higher = more caspase 3/7 activity than screen typical
Rule for the call: 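a knock-down is a hit when classed RV1 or RV2 for lowered viability, or CA1 or CA2 for caspase activation; those lethal without drug were dropped; hits were retested singly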
This is one part, drawn at random, of about 18,000 reagents. Of all reagents, 450 (2.5%) are marked active. 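Single biological run; no consistent viability z cut-off exists, so the class columns, not z-scores, define the calls.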 The numbers tell different reagents against one gene apart.

target	reagent no.	viability hit class	caspase hit class	viability robust z-score	caspase robust z-score	Call
NIBAN2 (niban apoptosis regulator 2)	1	no change	no change	1.63	-0.6	inactive
CCT8L1P (chaperonin containing TCP1 subunit 8 like 1, pseudogene)	1	no change	no change	0.63	-0.46	inactive
GBP2 (guanylate binding protein 2)	1	no change	no change	0.59	-0.22	inactive
CDC50B (cell division cycle 50 P4-ATPase accessory subunit B)	1	no change	no change	1.2	-0.18	inactive
TGOLN2 (trans-golgi network protein 2)	1	no change	no change	-0.82	0.21	inactive
OR2T34 (olfactory receptor family 2 subfamily T member 34)	1	no change	no change	-1.64	2.06	inactive
TCEAL9 (transcription elongation factor A like 9)	1	no change	no change	0.82	1.02	inactive
FOXA1 (forkhead box A1)	1	no change	no change	-1.35	2.12	inactive
DAGLB (diacylglycerol lipase beta)	1	no change	no change	0.52	-0.7	inactive
SGSM1 (small G protein signaling modulator 1)	1	no change	no change	0.34	-0.62	inactive
DEFB126 (defensin beta 126)	1	no change	no change	-1.34	-0.32	inactive

Copied from the list.
FOXA1 (forkhead box A1), caspase hit class = no change
For “viability hit class”, SGSM1 (small G protein signaling modulator 1) has no change
DEFB126 (defensin beta 126), viability robust z-score: -1.34

Further entries follow:
target	reagent no.	viability hit class	caspase hit class	viability robust z-score	caspase robust z-score	Call
CCR4 (C-C motif chemokine receptor 4)	1	no change	no change	-0.66	-1.09	inactive
LONRF1 (LON peptidase N-terminal domain and ring finger 1)	1	no change	no change	1.5	-0.1	inactive
HSPA9 (heat shock protein family A (Hsp70) member 9)	1	no change	no change	-2.7	0.12	inactive
ZNF518A (zinc finger protein 518A)	1	no change	no change	-0.2	1.82	inactive
GPX5 (glutathione peroxidase 5)	1	no change	no change	1.12	-0.48	inactive
UROS (uroporphyrinogen III synthase)	1	no change	no change	-0.25	-0.67	inactive
RASL10A (RAS like family 10 member A)	1	no change	no change	-0.62	-0.74	inactive
DEFB119 (defensin beta 119)	1	no change	no change	-1.17	0.64	inactive
XPR1 (xenotropic and polytropic retrovirus receptor 1)	1	no change	no change	0.76	-0.64	inactive
NEBL (nebulette)	1	no change	no change	2.11	1.02	inactive
NEBL (nebulette)	2	no change	no change	-1.08	0.12	inactive
SPATC1L (spermatogenesis and centriole associated 1 like)	1	no change	no change	-1.5	-0.74	inactive
